# Reference: the supplement of paper PMC8728848
# The other results are listed elsewhere or left out.
# How the values were obtained:
# Assay in all cases: glycan array binding signal (z-score within array); higher = stronger binding
# Settings in all cases: glycan notation: IUPAC condensed, linker removed
# [1] = biological target: Fuc(a1-2)[Gal(a1-3)]Gal(b1-4)GlcNAc(b1-2)Man(a1-3)[Fuc(a1-2)[Gal(a1-3)]Gal(b1-4)GlcNAc(b1-2)Man(a1-6)]Man(b1-4)GlcNAc(b1-4)GlcNAc
# Summary of the method: (§1)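 Columns mapping to the same glycan were averaged after glycan names were converted to IUPAC-condensed notation. The data come from 3228 arrays in the Consortium for Functional Glycomics database, limited to those with an available protein sequence. Binding is reported as a within-array Z-score averaged across arrays of one protein sequence and across linkers.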
# [2] = biological target: Fuc(a1-2)[Gal(a1-3)]Gal(b1-4)GlcNAc(b1-2)Man(a1-3)[Fuc(a1-2)[Gal(a1-3)]Gal(b1-4)GlcNAc(b1-2)Man(a1-6)]Man(b1-4)GlcNAc(b1-4)[Fuc(a1-6)]GlcNAc
# Summary of the method: as §1
# [3] = biological target: Fuc(a1-2)[Gal(a1-3)]Gal(b1-4)GlcNAc(b1-3)GalNAc
# Summary of the method: as §1
# [4] = biological target: Fuc(a1-2)[Gal(a1-3)]Gal(b1-4)GlcNAc(b1-3)[Fuc(a1-2)[Gal(a1-3)]Gal(b1-4)GlcNAc(b1-6)]GalNAc
# Summary of the method: as §1
# [5] = biological target: Fuc(a1-2)[Gal(a1-3)]Gal(b1-4)GlcNAc(b1-6)GalNAc
# Summary of the method: as §1
# [6] = biological target: Fuc(a1-2)[Gal(a1-3)]Gal(b1-4)[Fuc(a1-3)]Glc
# Summary of the method: as §1
# [7] = biological target: Fuc(a1-2)[Gal(a1-3)]Gal(b1-4)[Fuc(a1-3)]GlcNAc
# Summary of the method: as §1
# [8] = biological target: Fuc(a1-2)[Gal(a1-3)]Gal(b1-4)[Fuc(a1-3)]GlcNAc(b1-3)GalNAc
# Summary of the method: as §1
# [9] = biological target: Fuc(a1-2)[Gal(a1-4)]Gal(b1-4)GlcNAc
# Summary of the method: as §1
# [10] = biological target: Fuc(a1-2)[GalNAc(a1-3)]Gal
# Summary of the method: as §1
# [11] = biological target: Fuc(a1-2)[GalNAc(a1-3)]Gal(b1-3)GalNAc(a1-3)[Fuc(a1-2)]Gal(b1-4)GlcNAc
# Summary of the method: as §1
# [12] = biological target: Fuc(a1-2)[GalNAc(a1-3)]Gal(b1-3)GalNAc(b1-3)Gal(a1-4)Gal(b1-4)Glc
# Summary of the method: as §1
# [13] = biological target: Fuc(a1-2)[GalNAc(a1-3)]Gal(b1-3)GlcNAc
# Summary of the method: as §1
# [14] = biological target: Fuc(a1-2)[GalNAc(a1-3)]Gal(b1-3)GlcNAc(b1-2)Man(a1-3)[Fuc(a1-2)[GalNAc(a1-3)]Gal(b1-3)GlcNAc(b1-2)Man(a1-6)]Man(b1-4)GlcNAc(b1-4)GlcNAc
# Summary of the method: as §1
# [15] = biological target: Fuc(a1-2)[GalNAc(a1-3)]Gal(b1-3)GlcNAc(b1-2)Man(a1-3)[Fuc(a1-2)[GalNAc(a1-3)]Gal(b1-3)GlcNAc(b1-2)Man(a1-6)]Man(b1-4)GlcNAc(b1-4)[Fuc(a1-6)]GlcNAc
# Summary of the method: as §1
# [16] = biological target: Fuc(a1-2)[GalNAc(a1-3)]Gal(b1-3)GlcNAc(b1-3)GalNAc
# Summary of the method: as §1
# [17] = biological target: Fuc(a1-2)[GalNAc(a1-3)]Gal(b1-3)GlcNAc(b1-6)GalNAc
# Summary of the method: as §1
# [18] = biological target: Fuc(a1-2)[GalNAc(a1-3)]Gal(b1-4)Glc
# Summary of the method: as §1
# [19] = biological target: Fuc(a1-2)[GalNAc(a1-3)]Gal(b1-4)GlcNAc
# Summary of the method: as §1
# [20] = biological target: Fuc(a1-2)[GalNAc(a1-3)]Gal(b1-4)GlcNAc(b1-2)Man
# Summary of the method: as §1
# [21] = biological target: Fuc(a1-2)[GalNAc(a1-3)]Gal(b1-4)GlcNAc(b1-2)Man(a1-3)[Fuc(a1-2)[GalNAc(a1-3)]Gal(b1-4)GlcNAc(b1-2)Man(a1-6)]Man(b1-4)GlcNAc(b1-4)GlcNAc
# Summary of the method: as §1
# [22] = biological target: Fuc(a1-2)[GalNAc(a1-3)]Gal(b1-4)GlcNAc(b1-2)Man(a1-3)[Fuc(a1-2)[GalNAc(a1-3)]Gal(b1-4)GlcNAc(b1-2)Man(a1-6)]Man(b1-4)GlcNAc(b1-4)[Fuc(a1-6)]GlcNAc
# Summary of the method: as §1
# [23] = biological target: Fuc(a1-2)[GalNAc(a1-3)]Gal(b1-4)GlcNAc(b1-3)Gal(b1-4)GlcNAc
# Summary of the method: as §1
# [24] = biological target: Fuc(a1-2)[GalNAc(a1-3)]Gal(b1-4)GlcNAc(b1-3)Gal(b1-4)GlcNAc(b1-3)Gal(b1-4)GlcNAc
# Summary of the method: as §1
# [25] = biological target: Fuc(a1-2)[GalNAc(a1-3)]Gal(b1-4)GlcNAc(b1-3)GalNAc
# Summary of the method: as §1
# [26] = biological target: Fuc(a1-2)[GalNAc(a1-3)]Gal(b1-4)GlcNAc(b1-3)[Fuc(a1-2)[GalNAc(a1-3)]Gal(b1-4)GlcNAc(b1-6)]GalNAc
# Summary of the method: as §1
# [27] = biological target: Fuc(a1-2)[GalNAc(a1-3)]Gal(b1-4)GlcNAc(b1-6)GalNAc
# Summary of the method: as §1
# [28] = biological target: Fuc(a1-2)[GalNAc(a1-3)]Gal(b1-4)[Fuc(a1-3)]GlcNAc
# Summary of the method: as §1
# [29] = biological target: Fuc(a1-2)[GalNAc(a1-3)]Gal(b1-4)[Fuc(a1-3)]GlcNAc(b1-3)GalNAc
# Summary of the method: as §1
# [30] = biological target: Fuc(a1-2)[GalNAc(a1-4)]Gal(b1-4)GlcNAc
# Summary of the method: as §1
binder,measurement,setting,value
LlpA (Burkholderia cenocepacia) (protein) MGSSHHHHHHSSGLVPRGSHKILGSNETLSAGNVVYSDNGQYHLAMQTDGNLVVYGPTGAVWQSQTSGSGGNRAVMQGDGNLVIYRADNTAAWSSKTAHPGAFLAVQDDGNVVIYWPRPAWASNTSDPATQQSAESKYLASGSTMSAGQTVTVAQYMLVFQADGNLVLYKNGGNPIWSTGTQGKGATYAVMQSDGNFVIYAGSTALWSTKTNGANGAQLVLQSDGNLVIYAPTAAWSTKFGLVTAPTSTSTSNNGPGSGICVGVCPPHPLNGNPFSPVGVGTTGLGFPTPGYPGAAF,glycan array binding signal (z-score),[1],0.546
same,glycan array binding signal (z-score),[2],0.062
same,glycan array binding signal (z-score),[3],0.11
same,glycan array binding signal (z-score),[4],-0.512
same,glycan array binding signal (z-score),[5],-0.111
same,glycan array binding signal (z-score),[6],-1.36
same,glycan array binding signal (z-score),[7],1.33
same,glycan array binding signal (z-score),[8],1.06
same,glycan array binding signal (z-score),[9],-0.003
same,glycan array binding signal (z-score),[10],-0.443
same,glycan array binding signal (z-score),[11],0.294
same,glycan array binding signal (z-score),[12],-0.271
same,glycan array binding signal (z-score),[13],0.446
same,glycan array binding signal (z-score),[14],-0.334
same,glycan array binding signal (z-score),[15],0.257
same,glycan array binding signal (z-score),[16],0.363
same,glycan array binding signal (z-score),[17],-0.852
same,glycan array binding signal (z-score),[18],0.875
same,glycan array binding signal (z-score),[19],-0.88
same,glycan array binding signal (z-score),[20],-1.34
same,glycan array binding signal (z-score),[21],1.06
same,glycan array binding signal (z-score),[22],0.142
same,glycan array binding signal (z-score),[23],-0.265
same,glycan array binding signal (z-score),[24],1.26
same,glycan array binding signal (z-score),[25],-2.33
same,glycan array binding signal (z-score),[26],0.109
same,glycan array binding signal (z-score),[27],-1.15
same,glycan array binding signal (z-score),[28],0.612
same,glycan array binding signal (z-score),[29],-0.551
same,glycan array binding signal (z-score),[30],0.217

# 2 entries from above, tab-delimited:
binder	measurement	setting	value
LlpA (Burkholderia cenocepacia) (protein) MGSSHHHHHHSSGLVPRGSHKILGSNETLSAGNVVYSDNGQYHLAMQTDGNLVVYGPTGAVWQSQTSGSGGNRAVMQGDGNLVIYRADNTAAWSSKTAHPGAFLAVQDDGNVVIYWPRPAWASNTSDPATQQSAESKYLASGSTMSAGQTVTVAQYMLVFQADGNLVLYKNGGNPIWSTGTQGKGATYAVMQSDGNFVIYAGSTALWSTKTNGANGAQLVLQSDGNLVIYAPTAAWSTKFGLVTAPTSTSTSNNGPGSGICVGVCPPHPLNGNPFSPVGVGTTGLGFPTPGYPGAAF	glycan array binding signal (z-score)	[18]	0.875
same	glycan array binding signal (z-score)	[19]	-0.88
